# Conditions: one cycle = 21 days
row,SMILES,median number of treatment cycles able to be given to patients [treatment cycles]
1,"CC[C@@]1(O)C(=O)OCc2c1cc1n(c2=O)Cc2cc3c(CN(C)C)c(O)ccc3nc2-1 [Topotecan, reference compound]",5.0
2,"CC[C@@]1(O)C(=O)OCc2c1cc1n(c2=O)Cc2c-1nc1ccccc1c2CC[Si](C)(C)C [Karenitecin, (4S)-4-ethyl-4-hydroxy-11-[2-(trimethylsilyl)ethyl]-1H-pyrano[3′:4′:6,7]indolizino[1,2-b]quinoline-3,14(4H,12H)-dione]",6.0

# — patent US10413538B2, “Administration of karenitecin for the treatment of platinum and/or taxane chemotherapy-resistant or -refractory advanced ovarian cancer” (priority 2013, dated 2019)
